According to US7906477B2 (Genspera, Inc., priority 2002, dated 2011):
For some assays here: Not every detail of the peptide structures is certain; ends, links or a residue may be inferred. Some of these results come from one statement about several compounds together. For some assays here: For at least one compound, name, drawing or mass did not settle the structure. Peptide text beside a SMILES is read from it. * marks the point of attachment. X1 = C/C=C(/C)C(=O)O[C@H]1C(C)=C2[C@H]([C@@H]1OC(=O)CCCCCCC)[C@@](C)(OC(C)=O)C[C@H](OC(=O)CCCCCCCCCCCN*)[C@@]1(O)[C@H]2OC(=O)[C@@]1(C)O

Sequences of proteins named here, by UniProt entry; tags and fusion partners are left off. Residues count along the entry.
UniProt P20151, 25-261: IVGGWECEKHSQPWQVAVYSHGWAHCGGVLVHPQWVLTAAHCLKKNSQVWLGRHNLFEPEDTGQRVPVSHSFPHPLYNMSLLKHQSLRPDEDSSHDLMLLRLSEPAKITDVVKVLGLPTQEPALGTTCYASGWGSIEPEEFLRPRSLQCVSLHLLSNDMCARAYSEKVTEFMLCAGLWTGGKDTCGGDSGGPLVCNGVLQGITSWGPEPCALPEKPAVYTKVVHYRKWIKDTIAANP
UniProt P00747, 97-580 partner limits assumed, species assumed: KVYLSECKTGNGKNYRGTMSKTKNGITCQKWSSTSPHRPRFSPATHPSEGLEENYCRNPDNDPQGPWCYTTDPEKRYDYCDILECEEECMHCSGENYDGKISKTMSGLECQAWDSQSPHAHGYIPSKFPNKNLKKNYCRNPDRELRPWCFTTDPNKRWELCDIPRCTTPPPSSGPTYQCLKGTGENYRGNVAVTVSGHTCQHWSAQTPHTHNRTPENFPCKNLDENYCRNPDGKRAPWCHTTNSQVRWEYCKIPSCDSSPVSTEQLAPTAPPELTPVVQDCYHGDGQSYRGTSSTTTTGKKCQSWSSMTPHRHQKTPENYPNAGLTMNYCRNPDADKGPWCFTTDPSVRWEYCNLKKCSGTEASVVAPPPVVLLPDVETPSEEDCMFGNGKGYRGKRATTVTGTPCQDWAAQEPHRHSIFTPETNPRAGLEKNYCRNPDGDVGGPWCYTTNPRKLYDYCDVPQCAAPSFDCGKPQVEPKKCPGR
UniProt P00747, 581-810 limits assumed, species assumed: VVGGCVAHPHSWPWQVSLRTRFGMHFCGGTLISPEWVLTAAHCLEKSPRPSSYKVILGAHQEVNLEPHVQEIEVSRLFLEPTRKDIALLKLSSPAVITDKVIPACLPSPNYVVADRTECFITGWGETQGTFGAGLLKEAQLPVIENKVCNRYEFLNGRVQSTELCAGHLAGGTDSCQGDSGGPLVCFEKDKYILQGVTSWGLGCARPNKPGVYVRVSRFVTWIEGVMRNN
UniProt P07339, 65-412, species assumed: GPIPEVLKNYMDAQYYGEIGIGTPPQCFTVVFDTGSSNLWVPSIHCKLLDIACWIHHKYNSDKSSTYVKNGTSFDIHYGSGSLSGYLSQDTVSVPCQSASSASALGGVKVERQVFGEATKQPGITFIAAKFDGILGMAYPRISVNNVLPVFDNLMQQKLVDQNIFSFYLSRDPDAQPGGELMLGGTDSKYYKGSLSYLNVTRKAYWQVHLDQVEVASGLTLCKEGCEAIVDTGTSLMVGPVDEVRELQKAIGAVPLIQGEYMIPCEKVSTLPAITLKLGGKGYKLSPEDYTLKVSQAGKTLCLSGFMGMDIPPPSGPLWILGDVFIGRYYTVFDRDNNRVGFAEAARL

Experiments:
[1] = pharmacokinetics after single intravenous dose, plasma levels by LC/MS/MS; assay type: in vivo, mouse; settings: all time points, 5 minutes to 24 hrs, after 3.67 μmoles/kg prodrug i.v.
Experimental: FIG. 9 depicts pharamacokinetic analysis of GKAFRR-L12ADT (SEQ ID NO:44) following single intravenous injection of 3.67 μmole/kg. Mice were treated in groups of 3 and then sacrificed at indicated time points. Data represent average±standard error of plasma concentrations as determined by LC-MS analysis.
Calibration standards consisted of ac-GKAFRR-L12ADT prodrug, RL12ADT or L12ADT spiked into mouse plasma and plasma samples from treated mice were analyzed by liquid chromatography coupled to a quadrupolequadripole mass spectrometer (LC/MS/MS) [PESciex API 3000]. A multistep gradient elution HPLC method was used to separate the ac-GKAFRR-L12ADT prodrug from the free RL12ADT and L12ADT with eluent A=2 mM ammonium acetate with 0.1% formic acid 1% acetic acid in deionized water and eluent B=90% acetonitrile/1% acetic acid/0% deionized water. […] Single-dose pharmacokinetics were assessed by noncompartmental analysis (Gibaldi, M. and Perroer, D. Pharmacokinetics, 2nd edition, p. 407-409. New York, 1982) The area under the curve from time zero to infinity (AUC0-∞) was calculated with the linear trapezoidal method (Gibaldi, M. and Perroer, D. Pharmacokinetics, 2nd edition, p. 407-409. New York, 1982)). The terminal half-life (T1/2) was determined from the terminal slope (ke) on a log-linear plot of concentration versus time. […]

hK2 [2] = target: T1, hK2 (Homo sapiens, UniProt P20151); experiment: hydrolysis in the protease panel: hK2; assay type: biochemical; settings: enzyme 1 μg/ml, prodrug 100 μM; 1 = approximately 0.1% digestion in 1 hour
T1 construct: made in house
Excerpt: (§1) Due to their short length, the hK2 peptide substrates could potentially be substrates for other trypsin-like proteases. Although a rather specific protease substrate can be defined with 7 amino acids, there is a lack of higher order structural information by which natural protein substrates normally impose high specificity. Cancer progression is often correlated with increased protease activity (Koblinsli, J. E. et al. (2000) Clin. Chim. Acta 291:113-135). These activities could be potentially beneficial since they could broaden the scope of applications for protease activated prodrugs. To test the hypothesis that other tumor-associated proteases could activate the prodrug, a number of known proteases (table 3), implicated in cancer progression were selected to determine if our lead substrate, GKAFRRL (SEQ ID NO:30) could be efficiently hydrolyzed by any of these proteases. For this analysis, the trypsin-like serine proteases plasmin and urokinase and cathepsins B and D were selected. Hydrolysis of both the fluorescence quenched peptide substrate and the TG-prodrug was analyzed. […] Plasmin, therefore, could be a valid target for selective activation of the GKAFRR-L12ADT (SEQ ID NO:44) prodrug in other types of cancer where plasmin activation may play an important role.

Plasmin = Plasmin (Homo sapiens, UniProt P00747); experiment: hydrolysis by tumor-associated proteases: Plasmin; assay type: biochemical
Excerpt: as §1

hK2 [3] = target: T1, hK2; experiment: hK2 hydrolysis of prodrug and non-fluorescent peptide by HPLC; assay type: biochemical; settings: HPLC analysis
Experimental: FIG. 4 depicts HPLC analysis of the hydrolysis of the hK2 prodrug Ac-GKAFRR-L12ADT (SEQ ID NO:41) by hK2 ([…]) incubated in 50 mM Tris, 0.1 M NaCl, pH 7.8 at room temperature for 24 hours. The mass of each peak was confirmed by MALDI-TOF mass spectrometric analysis.
Fluorescent substrates were analyzed by means of a fluorescence plate-reader (ex=355 nm, em=460 nm). acGKAFRRL-12ADT (SEQ ID NO:41) and acGKAFRRLG (SEQ ID NO:43) were analyzed by HPLC and quantified by HLPC integration.
This putative hK2 prodrug was incubated with enzymatically active hK2 (4 μg/ml) to determine extent of hydrolysis over time. […] In 25 min, 50% was hydrolyzed and after 1 hour, more than 80% of the starting prodrug was hydrolyzed. The ratio of the products RL-12ADT:L-12ADT was 1:1.8, as determined by HPLC integration.

Cathepsin D = Cathepsin D (Homo sapiens, UniProt P07339); experiment: hydrolysis by tumor-associated proteases: Cathepsin D; assay type: biochemical
Excerpt: as §1

Cathepsin B = Cathepsin B (Homo sapiens, UniProt P07858); experiment: hydrolysis by tumor-associated proteases: Cathepsin B; assay type: biochemical
Excerpt: as §1

Urokinase = Urokinase (Homo sapiens, UniProt P00749); experiment: hydrolysis by tumor-associated proteases: Urokinase; assay type: biochemical
Excerpt: as §1

[4] = enzyme 1 μg/ml, prodrug 100 μM, 1 = approximately 0.1% digestion in 1 hour

Row | SMILES | plasma concentration of cleavage product after dosing of the prodrug (below lower limit of detection) [1] [nM] | Relative hydrolysis rate, hK2 (hK2 [2]) | Relative hydrolysis rate, Plasmin (Plasmin; [4]) | fold higher hydrolysis rate by plasmin than by hK2 (Plasmin; prodrug) | hydrolysis by hK2 (in words) (hK2 [3]) | hydrolysis following incubation with Cathepsin D (in words) (Cathepsin D) | Relative hydrolysis rate, Cathepsin D (Cathepsin D; [4]) | hydrolysis following incubation with Cathepsin B (in words) (Cathepsin B) | Relative hydrolysis rate, Cathepsin B (Cathepsin B; [4]) | activity of Urokinase on the substrate (in words) (Urokinase) | Relative hydrolysis rate, Urokinase (Urokinase; [4])
1 | CC=C(C)C(=O)OC1C(C)=C2C(C1OC(=O)CCCCCCC)C(C)(OC(C)=O)CC(OC(=O)CCCCCCCCCCCNC(=O)C(N)CC(C)C)C1(O)C2OC(=O)C1(C)O [L12ADT, 8-O-(12-[L-leucinoylamino]dodecanoyl)-8-O-debutanoylthapsigargin] | < 1 | – | – | – | – | – | – | – | – | – | –
2 | C/C=C(/C)C(=O)O[C@H]1C(C)=C2[C@H]([C@@H]1OC(=O)CCCCCCC)[C@@](C)(OC(C)=O)C[C@H](OC(=O)CCCCCCCCCCCNC(=O)[C@H](CC(C)C)NC(=O)[C@H](CCCNC(=N)N)NC(=O)[C@H](CCCNC(=N)N)NC(=O)[C@H](Cc1ccccc1)NC(=O)[C@H](C)NC(=O)[C@H](CCCCN)NC(=O)CNC(C)=O)[C@@]1(O)[C@H]2OC(=O)[C@@]1(C)O [ac-GKAFRR-L12ADT] (Ac-GKAFRRL-X1) | – | 125 | 750 | approximately 6 fold | rapidly cleaved by hK2 | No appreciable hydrolysis | 1 | No appreciable hydrolysis | 1 | not on the prodrug | 1
